The text below walks through data of patent US20230399374A1 (PURDUE RESEARCH FOUNDATION, priority 2020, published 2023).

A short description of this data set: general procedure: Fmoc solid-phase peptide synthesis; Wang resin (0.6 mmol/g); 2-chlorotrityl resin for branched ligands and D10-Cys; HBTU/NMM, then double coupling with PyBOP/NMM. The conditions noted are these: whole synthesis.

Plain letter strings leave the end groups untold.

For “AVSEHQLLHDKGKSIQDLRRRELLEKLLxKLHTAEIRATSEVSPNSeeeeeeeeeeeeeeeeeeee”, the “final HPLC purity” value (analytical LC-MS (1220 LC; 6130 MS, Agilent), HPLC and mass spectrometry) worked out at 94%. Where the note is “overall”, the isolated yield is on record as 19%.
